# According to the supplement of paper PMC10663445:
# Structures can show the parent of a compound that is named as a salt. The list shows a part of the results. Single values are uncertain, as repeats are few or missing.
# Test system: hsa-miR-132-3p
# Assay: miR-132-3p level in NGN2-iNs after compound treatment (TMM-normalised, ComBat batch-corrected) (batch-corrected normalised expression (arbitrary units)); higher = higher miR-132-3p expression
# Details: 10 µM; 24 h; human iPSC-derived NGN2 neurons (BR43)
row,SMILES,miR-132-3p level in NGN2-iNs
1,CCCN(CCC)S(=O)(=O)c1ccc(C(=O)O)cc1 [Probenecid],-1.18
2,CCNC(=O)Nc1ccc(-c2nc3c(c(N4CCOC[C@@H]4C)n2)CCN(C2COC2)C3)cc1,0.252
3,CC(NC(=O)Cc1cc(F)cc(F)c1)C(=O)NC(C(=O)OC(C)(C)C)c1ccccc1 (stereo not given),-1.14
4,C[C@]12CC[C@@H]3c4ccc(O)cc4CC[C@H]3[C@@H]1CC[C@@H]2O [Estradiol],1.88
5,CC(C)c1ccc(NC(=O)Cn2cnc3c2c(=O)n(C)c(=O)n3C)cc1,2.47
6,CCNC(=O)c1[nH]nc(-c2cc(Cl)c(O)cc2O)c1-c1ccc(OC)cc1,-0.895
7,CCOC(=O)CCNc1cc(N2CCc3ccccc3CC2)nc(-c2ccccn2)n1,-0.969
8,Cc1cc(=O)oc2c(C=O)c(O)ccc12,-0.466
9,CN(C)CCOC(c1ccccc1)c1ccccc1 [Diphenhydramine HCl],1.21
10,CC(=O)[C@H]1CC[C@H]2[C@@H]3CCC4=CC(=O)CC[C@]4(C)[C@H]3CC[C@]12C [Progesterone],0.213
11,COc1ccc2ccc(=O)oc2c1CC=C(C)C [Osthole],-0.347
12,O=C(Nc1nc2cccc(-c3ccc(CN4CCS(=O)(=O)CC4)cc3)n2n1)C1CC1 [Filgotinib (GLPG0634)],0.385
13,N=C(N)NS(=O)(=O)c1ccc(N)cc1 [Sulfaguanidine],-0.612
14,CC(=O)Oc1ccccc1C(=O)O [Aspirin],-1.39
15,CNS(=O)(=O)CCc1ccc2[nH]cc(C3CCN(C)CC3)c2c1 [Naratriptan HCl],0.667
16,C#Cc1cccc(Nc2ncnc3cc4c(cc23)OCCOCCOCCO4)c1 [Icotinib],-0.424
17,Cc1ncc(CO)c(CO)c1O [Pyridoxine HCl],-0.75
18,C[C@H](O)[C@H](O)[C@@H](O)[C@@H](O)C=O [L-(+)-Rhamnose Monohydrate],-1.78
19,CC1(C)[C@H](C(=O)O)N2C(=O)C[C@H]2S1(=O)=O [Sulbactam],-0.901
20,CC1(C)[C@H](C(=O)O)N2C(=O)C[C@H]2S1(=O)=O [Sulbactam sodium],-0.0324
21,CC(C)c1cc(-c2n[nH]c(=O)n2-c2ccc3c(ccn3C)c2)c(O)cc1O [Ganetespib (STA-9090)],-0.197
22,CC(=O)O[C@]1(C(C)=O)CC[C@H]2[C@@H]3C=C(Cl)C4=CC(=O)[C@@H]5C[C@@H]5[C@]4(C)[C@H]3CC[C@@]21C [Cyproterone Acetate],-0.786
23,Cc1cc(C)c(-c2csc(NC(=O)c3ccccc3)n2)c(C)c1,-1.01
24,Cn1cc(-c2cnn3c(N)c(Br)c([C@@H]4CCCNC4)nc23)cn1,0.619
25,C=CC(=O)Nc1cccc(Nc2nc(Nc3ccc(Oc4ccnc(C(=O)NC)c4)cc3)ncc2F)c1,-0.565

row,SMILES,miR-132-3p level in NGN2-iNs
1,Cc1[nH]c2ccccc2c1C1=C(NCCc2ccc(F)cc2)C(=O)N(C)C1=O,0.87
2,N=C(N)Nc1ccc(C(=O)Oc2ccc3cc(C(=N)N)ccc3c2)cc1 [Nafamostat Mesylate],-1.29
3,N[C@@H](Cc1c[nH]c2ccc(O)cc12)C(=O)O [5-hydroxytryptophan (5-HTP)],-0.765
4,"CC(C)n1nc(-c2ccc3oc(N)nc3c2)c2c(N)ncnc21 [Sapanisertib (INK 128, MLN0128)]",0.00523
5,CC(=O)O[C@]1(C(C)=O)CC[C@H]2[C@@H]3CCC4=CC(=O)CCC4=C3[C@@H](c3ccc(N(C)C)cc3)C[C@@]21C [Ulipristal Acetate (CDB 2914)],2.03
6,COc1cc2nc(N(C)CCCNC(=O)C3CCCO3)nc(N)c2cc1OC (stereo not given) [Alfuzosin HCl],-0.0099
7,O=C(Nc1cccc2cccnc12)c1ccc(N2C(=O)C3C4C=CC(C4)C3C2=O)cc1 (stereo not drawn) [IWR-1-endo],-0.276
8,O=C(O)/C=C/c1ccc(O)c(O)c1 [Caffeic Acid],-0.586
9,CCOc1nc2cccc(C(=O)OCc3oc(=O)oc3C)c2n1Cc1ccc(-c2ccccc2-c2noc(=O)[nH]2)cc1 [Azilsartan Medoxomil],0.78
10,CN1c2cc(O)c(N=NC(N)=O)cc2CC1S(=O)(=O)O (stereo not given) [Carbazochrome sodium sulfonate (AC-17)],2.09
11,C#CCN[C@@H]1CCc2ccccc21 [Rasagiline Mesylate],-0.709
12,COc1cc(OC2CCN(C)CC2)ccc1Nc1ncc2c(n1)n(C1CCCC1)c(=O)n2C,-0.344
13,CC(NC(=O)c1ccccc1/N=C/c1c(O)ccc2ccccc12)c1ccccc1 (stereo not given) [Sirtinol],-1.49
14,Cc1cccc(-c2[nH]c(C(C)(C)C)nc2-c2ccc3c(c2)OCO3)n1,-1.61
15,CC(C)(OCc1nn(Cc2ccccc2)c2ccccc12)C(=O)O [Bindarit (AF 2838)],-1.22
16,CC(C)NCC(O)COc1ccc(CCOCC2CC2)cc1 (stereo not given) [Betaxolol],1.45
17,CCc1nc(N)nc(N)c1-c1ccc(Cl)cc1 [Pyrimethamine],0.835
18,Cc1c(C(=O)NN2CCCCC2)nn(-c2ccc(Cl)cc2Cl)c1-c1ccc(I)cc1,0.114
19,CCN(C(=O)c1c(O)c2c(Cl)cccc2n(C)c1=O)c1ccccc1 [Laquinimod],-0.935
20,CN1CC(=O)N2[C@H](c3ccc4c(c3)OCO4)c3[nH]c4ccccc4c3C[C@@H]2C1=O [Tadalafil],0.167
21,C[C@H]1c2cccc(O)c2C(=O)C2=C(O)[C@]3(O)C(=O)C(C(N)=O)=C(O)[C@@H](N(C)C)[C@@H]3[C@@H](O)[C@@H]21 [Doxycycline HCl],-1.26
22,COc1cc2c(c(OC)c1OC)-c1c(cc3c(c1OC)OCO3)CC(C)C(C)C2 (stereo not given) [Schisandrin B (Sch B)],-0.072
23,O=C(NCC1(c2nc(-c3ccccc3)cs2)CCOCC1)c1cccc(-c2noc(C(F)(F)F)n2)c1,-0.507
24,O=C(O)C(=O)O.[NH-][C@@H]1CCCC[C@H]1[NH-].[Pt+2] [Oxaliplatin],0.211
25,CC(C)C(=O)Oc1ccc(CO)cc1[C@H](CCN(C(C)C)C(C)C)c1ccccc1 [Fesoterodine Fumarate],-0.0469

row,SMILES,miR-132-3p level in NGN2-iNs
1,Cc1ccc(NC(=O)c2ccc(CN3CCN(C)CC3)cc2)cc1Nc1nccc(-c2cccnc2)n1 [Imatinib (STI571)],-0.971
2,Cc1ccc(NC(=O)c2ccc(CN3CCN(C)CC3)cc2)cc1Nc1nccc(-c2cccnc2)n1 [Imatinib Mesylate (STI571)],0.236
3,NS(=O)(=O)c1cc2c(cc1Cl)NC(C(Cl)Cl)NS2(=O)=O (stereo not given) [Trichlormethiazide],0.197
4,CN[C@@H]1[C@H](O)[C@H](NC)[C@H]2O[C@@]3(O)C(=O)C[C@@H](C)O[C@H]3O[C@@H]2[C@H]1O [Spectinomycin 2HCl],-1.28
5,COC(=O)C1=CO[C@@H](O[C@@H]2O[C@H](CO)[C@@H](O)[C@H](O)[C@H]2O)[C@@H]2C(CO)=CC[C@H]12 [Geniposide],1.03
6,Cc1onc(-c2ccccc2Cl)c1C(=O)N[C@@H]1C(=O)N2[C@@H]1SC(C)(C)[C@@H]2C(=O)O [Cloxacillin Sodium],0.7
7,C#Cc1cccc(Nc2ncnc3cc(OCCOC)c(OCCOC)cc23)c1 [Erlotinib HCl (OSI-744)],0.464
8,COc1ccc(Cn2ccc3ccc(C(=O)NO)cc32)cc1,-0.725
9,CC1(C)O[C@H]2CC(=O)OC[C@]23[C@H]2CC[C@@]4(C)[C@H](c5ccoc5)OC(=O)[C@H]5O[C@]54[C@]2(C)C(=O)C[C@@H]13 [Limonin],-0.0588
10,NC(=O)c1cccc(-c2cc(Nc3ccc(OC(F)(F)F)cc3)ncn2)c1,1.29
11,CCCCCCOC(=O)NC(=N)c1ccc(NCc2nc3cc(C(=O)N(CCC(=O)OCC)c4ccccn4)ccc3n2C)cc1 [Dabigatran Etexilate],-0.528
12,COc1ccc(O)cc1 [Mequinol],0.496
13,Cc1c(-c2ccccc2)oc2c(C(=O)OCCN3CCCCC3)cccc2c1=O [Flavoxate HCl],-0.135
14,CCOc1ccc2ccccc2c1C(=O)N[C@@H]1C(=O)N2[C@@H]1SC(C)(C)[C@@H]2C(=O)O [Nafcillin Sodium],-0.555
15,C=C1/C(=C\C=C2/CCC[C@]3(C)[C@@H]([C@H](C)CCCC(C)C)CC[C@@H]23)C[C@@H](O)C[C@@H]1O [Alfacalcidol],-0.288
16,CCC[C@@H]1C[C@@H](C(=O)N[C@@H]([C@H]2O[C@H](SC)[C@H](O)[C@@H](O)[C@H]2O)[C@H](C)Cl)N(C)C1 [Clindamycin HCl],-0.0577
17,CCC[C@@H]1C[C@@H](C(=O)N[C@@H]([C@H]2O[C@H](SC)[C@H](O)[C@@H](O)[C@H]2O)[C@H](C)Cl)N(C)C1 [Clindamycin],-0.286
18,O=C(N[C@H](CO)[C@H](O)c1ccc([N+](=O)[O-])cc1)C(Cl)Cl [Chloramphenicol],0.653
19,C[S+]([O-])c1ccc(-c2nc(-c3ccc(F)cc3)c(-c3ccncc3)[nH]2)cc1 (stereo not given),0.837
20,COc1ccccc1Oc1c(NS(=O)(=O)c2ccc(C(C)(C)C)cc2)nc(-c2ncccn2)nc1OCCO [Bosentan Hydrate],0.937
21,Cc1cc(=O)[nH]c(=S)[nH]1 [Methylthiouracil],0.561
22,Nc1nc(CC(=O)Nc2ccc(CCNC[C@H](O)c3ccccc3)cc2)cs1 [Mirabegron],0.376
23,CC[C@]1(O)C[C@H]2CN(CCc3c([nH]c4ccccc34)[C@@](C(=O)OC)(c3cc4c(cc3OC)N(C=O)[C@H]3[C@@](O)(C(=O)OC)[C@H](OC(C)=O)[C@]5(CC)C=CCN6CC[C@]43[C@@H]65)C2)C1 [Vincristine sulfate],1.68
24,COc1ccccc1OCC(O)CO (stereo not given) [Guaifenesin],0.15
25,Oc1ccc(/C=C/c2cc(O)cc(O)c2)cc1 [Resveratrol],0.091

# Five records picked at random from the list so far, as already listed:
row,SMILES,miR-132-3p level in NGN2-iNs
1,CCCN(CCC)S(=O)(=O)c1ccc(C(=O)O)cc1 [Probenecid],-1.18
19,CC1(C)[C@H](C(=O)O)N2C(=O)C[C@H]2S1(=O)=O [Sulbactam],-0.901
7,C#Cc1cccc(Nc2ncnc3cc(OCCOC)c(OCCOC)cc23)c1 [Erlotinib HCl (OSI-744)],0.464
4,"CC(C)n1nc(-c2ccc3oc(N)nc3c2)c2c(N)ncnc21 [Sapanisertib (INK 128, MLN0128)]",0.00523
19,CCN(C(=O)c1c(O)c2c(Cl)cccc2n(C)c1=O)c1ccccc1 [Laquinimod],-0.935
